According to article PMC4275244:

Biological target: T1, plakoglobin (human (endogenous in BxPC-3)) (UniProt P14923)
T1 sequence: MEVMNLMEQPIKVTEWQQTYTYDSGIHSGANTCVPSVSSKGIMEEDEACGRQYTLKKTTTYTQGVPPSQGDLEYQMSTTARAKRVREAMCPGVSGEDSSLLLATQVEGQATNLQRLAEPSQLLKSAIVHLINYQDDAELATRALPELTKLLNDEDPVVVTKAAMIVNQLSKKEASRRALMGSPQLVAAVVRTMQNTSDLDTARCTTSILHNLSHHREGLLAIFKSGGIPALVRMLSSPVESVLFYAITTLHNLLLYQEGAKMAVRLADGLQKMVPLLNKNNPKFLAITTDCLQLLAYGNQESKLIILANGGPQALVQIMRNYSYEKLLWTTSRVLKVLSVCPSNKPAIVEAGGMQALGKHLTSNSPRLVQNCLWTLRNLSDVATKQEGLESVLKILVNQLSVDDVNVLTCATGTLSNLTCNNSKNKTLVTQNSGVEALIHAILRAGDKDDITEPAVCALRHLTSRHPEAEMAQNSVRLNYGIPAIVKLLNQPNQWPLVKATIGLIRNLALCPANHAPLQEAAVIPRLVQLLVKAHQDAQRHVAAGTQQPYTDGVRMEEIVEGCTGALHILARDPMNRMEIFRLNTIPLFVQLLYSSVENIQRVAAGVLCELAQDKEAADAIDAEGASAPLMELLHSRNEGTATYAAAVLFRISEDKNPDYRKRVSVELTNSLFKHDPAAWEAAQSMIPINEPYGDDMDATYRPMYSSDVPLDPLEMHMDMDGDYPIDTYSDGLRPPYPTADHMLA
Assay: co-IP; whole cell lysates (50 mM Tris pH 8.0, 150 mM NaCl, 1% NP40, 2 mM EDTA) of BxPC-3 wild type and β-catenin deficient clones #4, #31, #79, #93, #111; anti-plakoglobin antibody on Protein G Dynabeads, 400 µg protein, 4°C over night; normal rabbit IgG as negative control; blots for plakoglobin and E-cadherin

E-cadherin (human (endogenous in BxPC-3))
binding: binds

No constants are given. Whether binding was seen depends on the method and setting. In cells and extracts the contact can be indirect. A result given as binding can be weak or reduced; the word gives no strength.
